{"source": "paper PMC11109203", "about": "(Nature Communications, 2024)", "binders": {"B1": {"name": "S. pombe H2AZB fusion protein (H2B_(32-126)-H2A.Z_(22-115)) (other, UniProt P04913 32-126, looked up)", "chain": "NRKETYSSYIYKVLKQVHPDTGISNQAMRILNSFVNDIFERIATEASKLAAYNKKSTISSREIQTAVRLILPGELAKHAVTEGTKSVTKYSSSAQGQMSHSARAGLQFPVGRVRRFLKAKTQNNMRVGAKSAVYSAAVLEYLTAEVLELAGNAAKDLKVKRITPRHLQLAIRGDEELDTLIRATIAGGG", "notes": "histone variant H2A.Z, S. pombe, residues 22-115; No linker between the two parts is told; also called H2A.Z-H2B fusion protein; source: E. coli Rosetta, purified (3C digestion, Superdex); not shown: 6*His, N-terminal, cleaved"}}, "biological_target": "T1, Sad1_(1-169) (S. pombe, UniProt Q09825 1-169)", "T1 construct": "Cleavage is told in general for proteins not needed with their tag; used in ITC, SEC and MST; also called Sad1NTD; source: E. coli Rosetta, purified (glutathione Sepharose 4B, 3C digestion on beads, Superdex); not shown: GST, N-terminal, cleaved", "T1 sequence (looked up)": "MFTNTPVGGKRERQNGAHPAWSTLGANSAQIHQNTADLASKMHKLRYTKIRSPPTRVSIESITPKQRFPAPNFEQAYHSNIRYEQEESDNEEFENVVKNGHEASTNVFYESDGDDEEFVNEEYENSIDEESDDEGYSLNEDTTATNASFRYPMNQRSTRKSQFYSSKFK", "assay": "ITC; MicroCal ITC200, 20 °C; 25 mM Tris-HCl pH 8.0, 400 mM NaCl, 2 mM DTT; Sad1 (500 μM) titrated into H2AB (50 μM)", "conditions": "both partners purified", "data": [{"binder": "B1", "values": [{"measurement": "Kd", "result": 7.5, "unit": "µM"}]}]}
